## Screening data, single-dose tests

The chains behind the UniProt entries cited, without tags or fusion partners. Residues count along the entry.
UniProt A4I591, 1-473: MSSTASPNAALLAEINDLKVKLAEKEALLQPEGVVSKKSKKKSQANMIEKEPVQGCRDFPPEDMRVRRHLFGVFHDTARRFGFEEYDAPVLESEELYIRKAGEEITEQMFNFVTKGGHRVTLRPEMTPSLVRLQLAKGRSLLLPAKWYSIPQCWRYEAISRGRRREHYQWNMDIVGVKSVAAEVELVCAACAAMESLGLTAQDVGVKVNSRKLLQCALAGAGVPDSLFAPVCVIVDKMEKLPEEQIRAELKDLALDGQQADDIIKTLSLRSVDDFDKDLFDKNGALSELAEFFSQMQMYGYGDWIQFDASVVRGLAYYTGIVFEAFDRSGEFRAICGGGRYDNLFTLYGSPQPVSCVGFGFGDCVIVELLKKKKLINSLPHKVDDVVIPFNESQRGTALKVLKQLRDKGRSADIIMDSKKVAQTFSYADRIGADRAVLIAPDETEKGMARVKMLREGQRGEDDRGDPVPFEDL

From ChEMBL document CHEMBL3988442, “University of Dundee, Small-Polar-MMV Screening Library” (2021).

Values are the deposited “Percent Effect”, in %.
The controls that fix the scale are not given in the record; negative values are as filed.
This is an unselected part of the compounds tested.

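Histidine-tRNA ligase, Leishmania infantum (UniProt A4I591). Enzyme assay of histidyl-tRNA synthetase; the read-out is not stated. Concentration: 30 µM. The record gives no direction; compounds that gave an IC50 in retests scored well above the rest, so higher reads as stronger inhibition. The assay is labelled LdHisRS but filed under L. infantum. Size under these conditions: about 69,000 compounds, about 410 of them at 50% or above in at least one test.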

With CN(C(=O)CCc1cccs1)C1CCCN(C2Cc3ccccc3C2)C1 (stereo not drawn) the screen gave 21.6%. Cn1cc(CNCC2(O)CCCCC2)c(-c2cccnc2)n1 gave 0%. Result for CC(=O)NCCC(=O)Nc1sccc1C(=O)C(C)(C)C was 20.51%. Cc1cnn(CCC(=O)N2CCCN(c3nc(C)cs3)CC2)c1 read 20.34%. With Cc1cccc(Nc2noc3c2CN(C(=O)c2ccn(C)n2)CC3)c1C the screen gave 9.79%. For C1CCC(CNC2CCCN(Cc3noc(C4CC4)n3)C2)C1 (stereo not drawn) the result was 14.29%. For Cc1nc(CN2CCC3(CCN(C(=O)c4ccoc4C)CC3)C2)cs1 the result was 17.81%. Cc1nn(C)c(C)c1C(=O)N1CCN(c2ccncc2Cl)CC1 gave 16.33%.

O=C(Cc1ccc2c(c1)OCO2)N1CCN(c2cnccn2)CC1 read 7.2%. CC(Cn1cccn1)NC(=O)N1CCCN(Cc2cccs2)CC1 (stereo not drawn) read -2.632%. With CC1(C)CN(C(=O)c2occc2COc2cccc(C#N)c2)CCO1 the screen gave -8.85%. O=C(O)c1cc2c(nc1N1CCCC1)CCN(C1CCOCC1)CC2 read 2.655%. CC(C)c1nn(C)c(N2CCOCC2)c1CNCCS(C)(=O)=O read 8.511%. For CSCC(=O)N1CCCN(c2ccccc2C)CC1 the result was 13.21%. For O=C(c1ccco1)N1CCCC(c2cc(C(F)(F)F)n3ncnc3n2)C1 (stereo not drawn) the result was 18.56%. For COCc1nc(CNC2CCSCC2)no1 the result was 17.14%.

For Cc1ccc(C(=O)N2CCSCC2)cc1N1CCNC1=O the result was 16.67%. O=C(NC[C@H]1OC[C@@H](NC2CCC2)[C@@H]1O)Nc1ccccc1 read -4.054%. With O=C(c1ccc2c(c1)[nH]c(=O)n2C1CCCC1)N1CCCSCC1 the screen gave 25.64%. Cn1cc(C(=O)NC[C@@H]2OC[C@H]3CN(S(C)(=O)=O)CC[C@H]32)cn1 gave 9.524%. For COCC(=O)N1CCN(c2cc(C)nc(C3CCCN3C(C)=O)c2)CC1 (stereo not drawn) the result was 21.74%. COc1c(CNCc2ccc(N(C)C)nc2)c(C)nn1C gave 19.64%. With CC(c1ccc(F)cc1)n1ccnc1-c1cc2n(n1)CCCNC2 (stereo not drawn) the screen gave 24.73%. With Cc1cc(CNC(=O)NCC(O)c2cccc(C(F)(F)F)c2)no1 (stereo not drawn) the screen gave 18%.

N#Cc1ccc(CN2CCCCC2Cn2cncn2)cc1 (stereo not drawn) read -4.712%. C=Cn1ncc(CN2C[C@@H]3CCCN3C[C@H]2CCSC)c1C gave 16.67%. CCc1ccc(CN(C)C(=O)c2cnc3c(c2)nc(N)n3CC)nc1 read 16.46%. For c1ccc(Cc2noc(CNC3CCc4ncnn4C3)n2)cc1 (stereo not drawn) the result was 24.62%. COc1ccc(C2=CCN(C(=O)CN(C)S(C)(=O)=O)CC2)cc1 gave 6.78%. Cc1oc(C(=O)O)cc1S(=O)(=O)Nc1cccc(Cl)c1F gave 0%. COc1ccc(CC(=O)NC(CC(=O)O)c2ccc(F)cc2)cc1OC (stereo not drawn) gave 14.67%. For O=C(c1ccoc1)N1CCC(NCc2ccccc2-n2ccnc2)CC1 the result was 7.895%.

Result for COc1ccc(-c2noc(Cn3cnc(C)c3)n2)c(OC)c1OC was 20%. CS(=O)(=O)N1CC[C@]2(O)CCN(c3cc(C#N)ccn3)C[C@@H]2C1 read 15.69%. Result for Cn1ncc2cnn(CC(O)COc3cccc4[nH]ccc34)c2c1=O (stereo not drawn) was 20.18%. Cc1nc(CCNC(=O)NC(C)Cn2cccn2)cs1 (stereo not drawn) gave 18.18%. For CCOC(=O)c1n[nH]cc1CN1CCOC(Cc2ccc(OC)cc2)C1 (stereo not drawn) the result was 9.804%. Result for CCn1cnc(NC(=O)NCC2CCS(=O)(=O)CC2)n1 was -1.149%.

The first 2 entries again:

* CN(C(=O)CCc1cccs1)C1CCCN(C2Cc3ccccc3C2)C1 (stereo not drawn) : 21.6%
* Cn1cc(CNCC2(O)CCCCC2)c(-c2cccnc2)n1 : 0%